Values from PubChem BioAssay AID1259254 (NCATS, 2017).
Purpose: 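Gene knock-downs that lead to re-replication, shown by excess G2 DNA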 (primary screen). Cell system: human HCT116 colorectal cancer cells. Reagent: single siRNA against human genes. Time to read-out: 3 days. Read-out: 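Imaged Hoechst DNA stain sorts each cell into a cycle phase by DNA amount; per plate, G2 fraction set to 0% for non-targeting and 100% for GMNN siRNA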. Direction: G2 robust z-score: higher = more G2 cells, more excess DNA replication. Hit rule: 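An siRNA counts as active if its G2 robust z-score lies at least 5 MADs above the screen median; here such calls match roughly 38% of GMNN control or more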.
In all, the deposit lists about 59,000 reagents; below is a part drawn at random. About 1,550 of them (2.6%) were called active. 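G2 share is only a proxy for re-replication; each gene was hit by three separate siRNAs, and active genes were retested.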 Reagents against one gene are numbered here. Further read-outs or replicates are left out here. Not stated in the record: the amount of reagent.

G2 robust z-score, by gene and reagent
FMOD: #1 1.89 inactive; #2 1.81 inactive; #3 -0.626 inactive
MRPS33: #1 -1.21 inactive; #2 -0.543 inactive; #3 1.12 inactive
SDHCP5: #1 -0.181 inactive; #2 -1.33 inactive; #3 -0.471 inactive
PLD6: #1 -0.451 inactive; #2 0.307 inactive; #3 -0.425 inactive
USP40: #1 -0.613 inactive; #2 0.737 inactive; #3 -0.934 inactive
COPG2: #1 1.99 inactive; #2 2.97 inactive; #3 0.978 inactive
OR10G8: #1 2.05 inactive; #2 -0.803 inactive; #3 0.916 inactive
LDLR: #1 0.424 inactive; #2 1.09 inactive; #3 0.528 inactive
CREB3L4: #1 0.58 inactive; #2 0.576 inactive; #3 1.82 inactive
GK2: #1 -0.393 inactive; #2 -0.555 inactive; #3 0.164 inactive
ZNF521: #1 -0.234 inactive; #2 -1.05 inactive; #3 0.0203 inactive
TMEM40: #1 0.131 inactive; #2 -0.291 inactive; #3 -0.539 inactive
CLDN5: #1 0.0673 inactive; #2 -0.588 inactive; #3 -0.0802 inactive
SRA1: #1 1.18 inactive; #2 -0.479 inactive; #3 0.545 inactive
PREP: #1 -0.0984 inactive; #2 -0.238 inactive; #3 0.136 inactive
STK40: #1 0.0651 inactive; #2 2.67 inactive; #3 0.341 inactive
PITPNB: #1 -0.323 inactive; #2 0.708 inactive; #3 -0.218 inactive
STARD8: #1 -0.853 inactive; #2 -0.786 inactive; #3 -0.207 inactive
CNN3-DT: #1 -0.29 inactive; #2 2.37 inactive; #3 -0.384 inactive
BNIP3L: #1 0.893 inactive; #2 -0.718 inactive; #3 -0.325 inactive
CTSK: #1 1.89 inactive; #2 3.32 inactive; #3 -0.582 inactive
IGFALS: #1 -0.259 inactive; #2 3.58 inactive; #3 -0.473 inactive
PCYT1A: #1 1.41 inactive; #2 -0.0347 inactive; #3 2.47 inactive
ANO10: #1 0.559 inactive; #2 -0.149 inactive; #3 -0.284 inactive
SDHAF2: #1 -0.287 inactive; #2 0.608 inactive; #3 1.83 inactive
FGL1: #1 0.336 inactive; #2 -0.277 inactive; #3 -0.381 inactive
RUVBL2: #1 3.6 inactive; #2 2.14 inactive; #3 -0.223 inactive
DRD5: #1 -0.0817 inactive; #2 0.893 inactive; #3 -1.17 inactive
FFAR1: #1 1.49 inactive; #2 3.58 inactive; #3 -0.592 inactive

Entries listed so far whose gene name starts with T or t:
G2 robust z-score, by gene and reagent
TMEM40: #1 0.131 inactive; #2 -0.291 inactive; #3 -0.539 inactive
